Data taken from patent US9863966B2 (priority 2012, dated 2018).

Tested on: monoclonal antibody from hybridoma cell line NM4.3F5.C10.B7.B2.B2.C4
Assay type: binding, sheep

| Structure (SMILES) | IC50 (antibody sensitivity) | % Cross Reactivity |
| --- | --- | --- |
| CCOC(=O)C1(c2ccccc2)CCN(C)CC1 [Meperidine] | about 0.5 ng/ml | – |
| CN1CC[C@]23c4c5ccc(O)c4O[C@H]2[C@@H](O)C=C[C@H]3[C@H]1C5.O=S(=O)(O)O [Morphine Sulfate Salt] | – | <1% |
